No constants are given. Whether binding was seen depends on the method and setting. Some entries that bind do so weakly or less than the wild type. Where a sequence is shown, tags or fusion partners need not be part of it.
Biological target: CD30 on CD30-stably expressed NF-κB reporter Ramos-Blue cells (human) (UniProt P28908)
Experiment: flow cytometry on cells; CD30-RB cells with a mixture of antibody ([…]) and CD153-rFc (200 ng/ml), 30 min on ice; bound CD153-rFc detected with anti-rabbit IgG-PE; only the binder purified

Chains of the proteins cited; added tags and fusions are not shown. Residues count along the entry.
UniProt P28908, residues 19-595: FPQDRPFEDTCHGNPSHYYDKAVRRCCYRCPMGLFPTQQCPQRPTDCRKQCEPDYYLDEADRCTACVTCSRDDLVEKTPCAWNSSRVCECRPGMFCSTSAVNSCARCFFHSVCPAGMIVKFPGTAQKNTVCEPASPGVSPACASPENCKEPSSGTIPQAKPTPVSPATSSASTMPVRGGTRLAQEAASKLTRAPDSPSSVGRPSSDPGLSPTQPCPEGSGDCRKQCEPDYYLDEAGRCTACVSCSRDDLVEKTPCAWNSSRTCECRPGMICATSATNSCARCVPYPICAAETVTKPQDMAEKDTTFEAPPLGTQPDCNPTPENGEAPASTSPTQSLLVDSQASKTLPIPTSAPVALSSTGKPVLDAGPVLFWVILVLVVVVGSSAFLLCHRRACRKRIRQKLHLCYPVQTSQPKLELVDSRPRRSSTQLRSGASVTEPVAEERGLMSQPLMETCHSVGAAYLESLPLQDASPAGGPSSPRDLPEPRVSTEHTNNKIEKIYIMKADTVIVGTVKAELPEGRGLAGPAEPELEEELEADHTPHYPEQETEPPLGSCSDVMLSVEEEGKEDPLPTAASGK

B1: CD153 fused to rabbit Fc (Fc fusion, UniProt P32971 63-234)
chain: QRTDSIPNSPDNVPLKGGNCSEDLLCILKRAPFKKSWAYLQVAKHLNKTKLSWNKDGILHGVRYQDGNLVIQFPGLYFIICQLQFLVQCPNNSVDLKLELLINKHIKKQALVTVCESGMQTKHVYQNLSQFLLDYLQVNTTISVNVDTFQYIDTSTFPLENVLSIFLYSNSD
- binding: binds

Reference: publication PMC11826918
